The values below are quoted from earlier work in PMC5289073, “Stable expression and functional characterisation of the diamondback moth ryanodine receptor G4946E variant conferring resistance to diamide insecticides” (Scientific Reports, 2015).

Like-named read-outs stand apart in the source and are kept apart here.

The data set deals with H. virescens RyR. Particulars: cited from earlier work.

For the molecule `CC(C)[C@@]1(O)[C@@H](OC(=O)c2ccc[nH]2)[C@@]2(O)[C@@]3(C)C[C@]4(O)O[C@@]5([C@H](O)[C@@H](C)CC[C@]35O)[C@@]2(O)[C@@]14C` [ryanodine], the Bmax is 1 to 1.5 pmol/mg (H. virescens native membrane preparations, different study) and 2.41 ± 0.17 pmol/mg (native preparation of H. virescens RyR).
